test system: tumor samples; assay: Absolute quantitation of TUMAP copies per cell by nano LC-MS/MS; design: species or system human; conditions: absolute peptide quantitation in tumor samples
Excerpt: Absolute quantitation of tumor associated peptides presented on the cell surface The generation of binders, such as antibodies and/or TCRs, is a laborious process, which may be conducted only for a number of selected targets. In the case of tumor-associated and -specific peptides, selection criteria include but are not restricted to exclusiveness of presentation and the density of peptide presented on the cell surface. In addition to the isolation and relative quantitation of peptides as described in EXAMPLE 1, the inventors did analyze absolute peptide copies per cell as described in WO 2016/107740. The quantitation of TUMAP copies per cell in solid tumor samples requires the absolute quantitation of the isolated TUMAP, the efficiency of the TUMAP isolation process, and the cell count of the tissue sample analyzed.
For an accurate quantitation of peptides by mass spectrometry, a calibration curve was generated for each individual peptide using two different isotope labeled peptide variants (one or two isotope-labeled amino acids are included during TUMAP synthesis). These isotopes labeled variants differ from the tumor-associated peptide only in their mass but show no difference in other physicochemical properties (Anderson et al., 2012). For the peptide calibration curve, a series of nano LC-MS/MS measurements was performed to determine the ration of MS/MS signals of titrated (singly isotope-labeled peptide) to constant (doubly isotope labeled peptide) isotope labeled peptides.
The doubly isotope labeled peptide, also called internal standard, was further spiked to each MS sample and all MS signals were normalized to the MS signal of the internal standard to level out potential technical variances between MS experiments.
The calibration curves were prepared in at least three different matrices, i.e. HLA peptide eluates from natural samples similar to the routine MS samples, and each preparation was measured in duplicate MS runs. For evaluation, MS signals were normalized to the signal of the internal standard and a calibration curve was calculated by logistic regression.
For the quantitation of tumor-associated peptides from tissue samples, the respective samples were also spiked with the internal standard; the MS signals were normalized to the internal standard and quantified using the peptide calibration curve.
As for any protein purification process, the isolation of proteins from tissue samples is associated with a certain loss of the protein of interest. To determine the efficiency of TUMAP isolation, peptide/MHC complexes were generated for all TUMAPs selected for absolute quantitation. To be able to discriminate the spiked from the natural peptide/MHC complexes, single-isotope-labelled versions of the TUMAPs were used, i.e. one isotope-labelled amino acid was included in TUMAP synthesis. These complexes were spiked into the freshly prepared tissue lysates, i.e. at the earliest possible point of the TUMAP isolation procedure, and then captured like the natural peptide/MHC complexes in the following affinity purification. Measuring the recovery of the single-labelled TUMAPs therefore allows conclusions regarding the efficiency of isolation of individual natural TUMAPs.
In contrast, the isolation efficiency differs between individual peptides. […] However, it is necessary to analyze each TUMAP individually as the isolation efficiency may not be extrapolated from one peptide to others.
In order to determine the cell count of the tissue samples subjected to absolute peptide quantitation, the inventors applied DNA content analysis. This method is applicable to a wide range of samples of different origin and, most importantly, frozen samples (Alcoser et al., 2011; Forsey and Chaudhuri, 2009; Silva et al., 2013). During the peptide isolation protocol, a tissue sample is processed to a homogenous lysate, from which a small lysate aliquot is taken. […]

Substance | Copies per cell (median)
1 (KLLDFSTRI; listed as Homo sapiens) [compound 1] | +++ (≥50 = +++)
2 (ALLDVLVKL; listed as Homo sapiens) [compound 2] | ++++ (≥75 = ++++)
4 (YLGDSHVLL; listed as Homo sapiens) [compound 4] | + (<25 = +)
5 (LVWEVVESV; listed as Homo sapiens) [compound 5] | ++++ (≥75 = ++++)
6 (ALHDSPVYL; listed as Homo sapiens) [compound 6] | + (<25 = +)
7 (ALWEEVKATSL; listed as Homo sapiens) [compound 7] | + (<25 = +)
8 (ILQSLVPAA; listed as Homo sapiens) [compound 8] | ++++ (≥75 = ++++)
9 (FLQEGDLISV; listed as Homo sapiens) [compound 9] | ++ (≥25 = ++)
10 (SLLDKLSGI; listed as Homo sapiens) [compound 10] | + (<25 = +)
11 (ALLPHAPEAV; listed as Homo sapiens) [compound 11] | + (<25 = +)
39 (YIYEDEVRL; listed as Homo sapiens) [compound 39] | ++ (≥25 = ++)
96 (KIIEDLANTV; listed as Homo sapiens) [compound 96] | ++ (≥25 = ++)
97 (GLIDDKGTIKL; listed as Homo sapiens) [compound 97] | ++ (≥25 = ++)
100 (SLGPPPVGV; listed as Homo sapiens) [compound 100] | + (<25 = +)
